Taken from: PubChem BioAssay AID504774 (Drosophila RNAi Screening Center, 2011)

Purpose: 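Fly genes whose loss alters survival after alkylation damage to DNA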 (primary screen)
Cells: Drosophila Kc167 cells
Reagents: long dsRNA against Drosophila genes, about 0.25 µg dsRNA per well
Time to read-out: about 6 days: 3 days knock-down, then 3 days with or without MMS
Challenge: methyl methanesulphonate 0.004% (w/v) for 3 days after knock-down
Detection: 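Viability in wells given MMS, read as ATP luminescence, normalised by quantiles plate by plate and averaged across replicates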
Scale: mean viability with MMS: higher = more surviving cells after MMS
The deposit covers about 23,000 reagents; shown is a random part of those that have a named target and a result. 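Values are quantile-normalised luminescence on an arbitrary scale; higher means more cells surviving MMS.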 A plus sign joins genes that one reagent is predicted to hit. Not all columns of the deposit are shown. Reagent sequences are not shown.

no.	target	DRSC id	mean viability with MMS
1	hll (heimdall)	DRSC01944	3.39e6
2	Nop17l (Nop17 like)	DRSC06556	3.72e6
3	Scgalpha (Sarcoglycan alpha)	DRSC03076	3.77e6
4	CG14356	DRSC14819	3.50e6
5	CG7203	DRSC03026	3.64e6
6	CG1239	DRSC12204	3.52e6
7	CG4325	DRSC18516	2.86e6
8	CG4325	DRSC23171	3.53e6
9	Dd (Dullard)	DRSC20539	3.55e6
10	Mdh2 (retired record)	DRSC16361	3.49e6

Single entries from above:
Value for CG1239 [DRSC12204] in “mean viability with MMS”: 3.52e6
Under “mean viability with MMS”, CG4325 [DRSC18516] shows 2.86e6
For “mean viability with MMS”, Nop17l (Nop17 like) [DRSC06556] shows 3.72e6
Result for hll (heimdall) [DRSC01944] in “mean viability with MMS”: 3.39e6

Further results:
no.	target	DRSC id	mean viability with MMS
11	CAH14 (Carbonic anhydrase 14)	DRSC04234	3.60e6
12	CAH14 (Carbonic anhydrase 14)	DRSC22160	3.62e6
13	CG7194	DRSC10784	3.61e6
14	Alms1b + Alms1a	DRSC18559	3.23e6
15	Nrd1 (Nardilysin)	DRSC19830	3.44e6
16	fon (fondue)	DRSC02507	3.53e6
17	CG5062	DRSC18385	3.40e6
18	CG5886	DRSC15908	3.56e6
19	Glg1 (Golgi complex-localized glycoprotein 1)	DRSC11815	3.61e6
20	Glg1 (Golgi complex-localized glycoprotein 1)	DRSC11816	3.45e6
21	Glg1 (Golgi complex-localized glycoprotein 1)	DRSC11817	3.60e6
22	CG12607	DRSC08287	3.40e6
23	alien + CG17906	DRSC02641	3.60e6
24	CG11601	DRSC00318	3.47e6
25	Fum3 (Fumarase 3)	DRSC10592	3.57e6
26	Glut1 (Glucose transporter 1)	DRSC07927	3.41e6
27	Glut1 (Glucose transporter 1)	DRSC08662	3.70e6
28	CG1840	DRSC19806	3.43e6
